Experimental data: patent publication EP0600087A1, “METHOD AND KIT OF IN VITRO IRRITATION TEST” (priority 1991, dated 1993)
At least one structure is not confirmed: it was looked up by name or label, or the drawing left a doubt.

Key:
[1] = Estimate of Draize score by regression of HDR values (Example 3); conditions: Draize score estimated by 17.61 + 0.624 1% HDR + 0.481 0.016% HDR
Excerpt: The results thus obtained were subjected to regression using the following associative equation to obtain the above-described correlation coefficient. 17.61 + 0.624 1% HDR + 0.481 0.016% HDR [formula] Consequently, a very good correspondence was observed even with evaluation by a plurality of concentrations.

[2] = Estimate of Draize score by regression of RBC and HDR values (Example 4); conditions: estimated value based on the Draize method using the associative equation with RBC, 2% HDR, 0.25% HDR, 0.063% HDR
Excerpt: • Method 1: The procedure as described in Example 1 was repeated. • Method 2: The procedure as described in Example 2 was repeated.
The results obtained from the two methods were subjected to regression using the associative equation below: […]
Here, the calculated values are estimated values based on the Draize method using the above-described associative equation, and the found values are measurements according to the Draize method.

## CCCCCCCCCCCCCCCC[n+]1ccccc1 [Cetyl pyridinium chloride]
[1]
  Estimated value: 66.544
[2]
  Calculated value: 33.9028
